# About 3,700 (1.2%) of roughly 300,000 compounds were called active. This list was built around the results that the source calls inconclusive (neither active nor inactive); the mix of calls is not that of the screen. Calls follow the shape of the full dose curve; tested in HEK293 cells. A potency beside an inconclusive call is a rough fit, not a confirmed value.
# Assay: qHTS for Inhibitors of binding or entry into cells for Lassa Virus; also: nearly all actives have a fitted effect of over 50% in size
# Details: Lassa virus pseudotype entry inhibition, cell reporter; activity change, negative = inhibition: at 37.9 µM (top of the series) unless noted
# % is scaled to controls: 0 for no effect and ±100 for the full control effect; potency is read from the fitted curve at half-maximal effect.
Structure (SMILES),Potency,"activity change, negative = inhibition"
O=C(NCCc1ccccc1)C(=O)NCC1OCCN1S(=O)(=O)c1ccc([N+](=O)[O-])cc1 (stereo not given),"inconclusive: 10 µM [inhibitor, partial curve, poor fit]",
NC(=O)c1nsc(C(=O)N(c2ccccc2)C(C(=O)NCC2CCCO2)c2cccs2)c1N (stereo not given),"inconclusive: 13 µM [inhibitor, partial curve, poor fit]",
Cc1noc(C)c1COc1cccc(C(=O)OCCOc2ccc(F)cc2)c1,"inconclusive: 11.2 µM [inhibitor, partial curve, poor fit]",
CCOc1ccc(NC(=O)Cn2cc(C(=O)c3ccccc3)c(=O)c3cc4c(cc32)OCO4)cc1,,inactive: 0.0495% [at 46.1 µM]
COc1ccc(N(CC(=O)NC2CC3CCC2C3)S(=O)(=O)c2ccccc2)cc1Cl (stereo not given),"inconclusive: 35.5 µM [inhibitor, single point]",
CN1C(=O)c2ccc(C(=O)Nc3cccnc3)cc2C1=O,"inconclusive: 8.91 µM [activator, partial curve, poor fit]",
CC(=O)Nc1ccc(S(=O)(=O)Nc2cc([N+](=O)[O-])ccc2C)cc1,"inconclusive: 12.6 µM [inhibitor, partial curve]",
COc1ccccc1NC(=O)c1oc2ccccc2c1NC(=O)COc1ccccc1OC,"inconclusive: 35.5 µM [activator, single point]",
O=C1C=C(O)CC(c2ccco2)C1 (stereo not given),"inconclusive: 2.24 µM [activator, partial curve, poor fit]",
O=C1CCc2cc(Br)ccc2O1,,inactive: -0.437%
Cc1ccc(CSc2nnc(-n3c(=O)c(C#N)cc4c(=O)n5cc(C)ccc5nc43)s2)cc1,,inactive: 24.5% [at 46.1 µM]
COc1ccc([C@H]2C[C@H](O)[C@@H](n3cc(C4CC4)nn3)CN2C(=O)c2cccs2)cc1,"inconclusive: 9.95 µM [inhibitor, full curve, poor fit]",
CCN1C(=O)C(CC(=O)N2CCN(C(c3ccccc3)c3ccccc3)CC2)N(CC)C1=O (stereo not given),"inconclusive: 9.2 µM [inhibitor, partial curve, poor fit]",
CCCCN=C1NN=C(c2ccc3c(c2)OCCO3)CS1,active: 7.94 µM,
CN(CC(=O)NCc1ccc(Cl)cc1)S(=O)(=O)c1cccc2nsnc12,,inactive: 5.9%
CC(C)c1ccc(OCc2nc(-c3ccccn3)no2)c(Br)c1,"inconclusive: 0.1 µM [activator, full curve, poor fit]",
COc1ccc(-c2cc(C)nc3c(-c4ccccc4)cnn23)cc1,"inconclusive: 3.16 µM [inhibitor, single point]",
O=c1[nH]c(C2CCCN(S(=O)(=O)c3ccccc3)C2)nc2c1nnn2Cc1ccccc1F (stereo not given),,inactive: -25.9%
CC(C)NC(=O)C(c1ccccc1)N1Cc2ccccc2C1=O (stereo not given),,inactive: -0.817% [at 46.1 µM]
COc1ccc(OCC2c3cc(OC)c(OC)cc3CCN2C(=O)COc2ccc(Cl)cc2Cl)cc1 (stereo not given),"inconclusive: 3.98 µM [inhibitor, partial curve, poor fit]",
CN(C)CCCN(C(=O)c1ccc(S(=O)(=O)N(C)C)cc1)c1nc2cc3c(cc2s1)OCO3,,inactive: -6.69% [at 46.1 µM]
C=CCn1c(SCC(=O)c2[nH]c(C)c(C(=O)OC)c2C)nc2scc(-c3ccc(OC)c(OC)c3)c2c1=O,"inconclusive: 1.58 µM [inhibitor, partial curve, poor fit]",
O=C(NNc1ccccc1)Nc1cc(Cl)ccc1Cl,"inconclusive: 3.55 µM [inhibitor, single point]",

Structure (SMILES),Potency,"activity change, negative = inhibition"
CCCOc1c(Br)cc(C2C3=C(CCCC3=O)N(C)C3=C2C(=O)CCC3)cc1OC,"inconclusive: 8.2 µM [inhibitor, partial curve]",
NC(=O)c1ccsc1NC(=O)COC(=O)c1ccccc1NCc1ccco1,,inactive: 2.05%
COc1ccc(N2CCn3c2nc2c3c(=O)n(CCCc3ccccc3)c(=O)n2C)c(OC)c1,"inconclusive: 18.3 µM [inhibitor, single point]",
CCOc1cccc(C(=O)Nc2ccccc2C(=O)N2CCN(C)CC2)c1,,inactive: 11%
CCN(CC)CCCNC(=O)CSc1nc2nc(C)c(Cc3c(F)cccc3Cl)c(C)n2n1,,inactive: -3.5% [at 46.1 µM]
O=C(Cc1c(Cl)cccc1Cl)N1CCN(Cc2ccccc2)CC1,"inconclusive: 1.26 µM [activator, single point]",
CCOc1ccc(CNC(=O)CCn2c(=O)oc3ccccc32)cc1OC,,inactive: -3.69%
CCCn1c(SCC(=O)C(C)(C)C)nc2ccccc21,,inactive: -0.178% [at 46.1 µM]
O=C(O)Cc1ccc(O)c(O)c1,,inactive: 17.3%
CN(C)c1ccc(NC(=O)CN2CCN(CC(=O)Nc3ccc(F)cc3)CC2)cc1,,inactive: 0.606%
Cc1ccc(N(Cc2cc3ccccc3[nH]c2=O)C(=O)c2cccc(Cl)c2)cc1,"inconclusive: 35.5 µM [inhibitor, single point]",
Cc1ccc(Cc2cnc(NC(=O)C3CCCO3)s2)cc1 (stereo not given),"inconclusive: 10 µM [inhibitor, partial curve]",
Cc1ccc(NC(=O)c2cncc(Br)c2)c(O)c1,"inconclusive: 35.5 µM [inhibitor, single point]",
CCCN(CCC)CCNC(=S)Nc1ccc2nc3n(c(=O)c2c1)CCCCC3,,inactive: 0.55%
N=c1cc(C2(O)CCCCC2)n2c(nc3ccccc32)s1,active: 10.3 µM,
Clc1ccccc1Nc1ncnc(-n2cccc2)n1,"inconclusive: 6.51 µM [activator, single point]",
Cc1ccn(-c2ccc(NC(=O)c3cccs3)cc2)n1,"inconclusive: 14.1 µM [inhibitor, partial curve, poor fit]",
Cc1ccc(OCCCCN(C)Cc2ccccc2)c(Br)c1,"inconclusive: 35.5 µM [inhibitor, single point]",
c1ccc(-c2cc3c(-n4cccc4)ncnc3o2)cc1,,inactive: -1.65%
Cc1ccc(CNC(=O)c2cc(-c3ccc(C)cc3)nc3n[nH]c(-c4ccc(F)cc4)c23)cc1,"inconclusive: 2.82 µM [inhibitor, partial curve, poor fit]",
Cc1cc(NC(=O)COc2ccc(N(C)S(=O)(=O)c3ccccc3)cc2)no1,,inactive: -5.68%
N#C/C(=N/Nc1ccc([N+](=O)[O-])cc1)C(=N)N1CCCCC1,"inconclusive: 22.4 µM [inhibitor, single point]",

# — PubChem BioAssay AID540256 (National Center for Advancing Translational Sciences (NCATS), 2011)
